# The other results are listed elsewhere or left out. The main result of the screen is listed elsewhere. These columns were measured beside it and carry no call. Most of these compounds were active or inconclusive in the main read-out, so they are no random draw. Words in brackets tell the shape of the fitted curve; partial curves, single points and poor fits give uncertain potencies.
# Experiment: qHTS Assay for Lipid Storage Modulators in Drosophila S3 Cells;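 on cell number change: cells counted by Cell Tracker Red CMTPX staining in the red channel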
# Settings: BODIPY lipid droplet fluorescence, 18-24 h; for cell number change: measured here: cell count max response, cells fed with added oleic acid
# How it was run: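 Drosophila S3 cells loaded with oleic acid (400 uM, as added) and compounds at several concentrations; lipid droplets imaged by 488-nm laser-scanning cytometry, 500–530 nm intensity and object ratio to cell channel. Percent activity normalized to 20 uM Triacsin C.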
# [1] = measured here: cell number channel AC50, cells fed with added oleic acid
# [2] = measured here: lipid fluorescence (Fed channel) AC50, cells fed with added oleic acid
Structure (SMILES),AC50 [1],AC50 [2],cell number change
CCN(CC)S(=O)(=O)c1cccc(C(=O)Nc2cccc(C)c2)c1,"2.91 µM [rising, partial curve]","3.66 µM [rising, single point]",–
CN1C(=O)CSc2ccc(NC(=O)NCCC3=CCCCC3)cc21,"2.31 µM [rising, partial curve]","3.66 µM [rising, partial curve]",-6.45%
COc1ccc(Cn2c(O)c(C=Nc3ccc(OC)cc3)c3ccccc3c2=O)cc1,"0.92 µM [rising, full curve]",–,–
Cc1ccc(C(=O)NNC(=O)C2CSC3(C)CCC(=O)N23)cc1 (centres undefined),–,"6.51 µM [rising, partial curve, poor fit]",-9.29%
COCCCNC(=O)CCc1c(C)c2cc3c(C)coc3cc2oc1=O,"6.51 µM [rising, single point]","20.6 µM [falling, single point]",7.75%
O=c1c2c([nH]c3ccccc13)CCCC2,–,"29.1 µM [falling, partial curve, poor fit]",-23.7%
Cc1ccccc1Nc1cc(C(=O)NCc2ccco2)c2ccccc2n1,–,"29.1 µM [rising, single point]",26.9%
C=CCn1c(SCC(=O)Nc2ccc(-c3nc4ccc(C)cc4s3)cc2)nnc1-c1ccccc1,"11.6 µM [falling, partial curve]","11.6 µM [falling, partial curve]",-62%
O=S(=O)(NCCC(c1ccc(F)cc1)c1ccco1)c1ccccc1 (centres undefined),–,"32.6 µM [falling, single point]",-20.7%
CCN(CC)S(=O)(=O)c1ccc(NC(=O)CSc2nnc(-c3ccc(F)cc3)o2)cc1,–,–,9.77%
O=C(CCc1ccccc1)Nc1ccc(Cl)cn1,"0.0259 µM [falling, full curve, poor fit]","32.6 µM [falling, single point]",-34.5%
CC(=O)c1ccc(NC(=S)Nc2cccc3cnccc23)cc1,–,"0.731 µM [falling, single point]",-3.91%
O=S1(=O)CC2SC(=S)N(c3ccccc3)C2C1 (centres undefined),–,"0.58 µM [rising, single point]",–
COC(=O)c1ccc(NC(=O)CSc2nnc(C)n2CC2CCCO2)cc1 (centres undefined),–,–,15.4%
COc1ccc(OC)c(S(=O)(=O)N2C(C)CCCC2C)c1 (centres undefined),–,"0.00461 µM [falling, full curve, poor fit]",3.42%
CCc1ccc2c(CN3CCN(S(=O)(=O)c4ccc5c(c4)OCCO5)CC3)cc(=O)oc2c1,–,–,-8.57%
CCOc1cc(/C=N/N=C(/N)c2nonc2N)cc(Br)c1OCc1ccc(Cl)cc1,"2.59 µM [rising, single point]","3.66 µM [rising, partial curve]",-74.3%
C=CCNc1nc(C)c(CNc2c(C)cc(C)cc2C)nc1C#N,–,"29.1 µM [rising, single point]",-9.12%
COc1ccc(CN2CCCC(C(=O)N3CCCCC3)C2)cc1OC (centres undefined),–,"29.1 µM [rising, single point]",17%
CCOC(=O)c1ccc(-c2c(-c3ccc(OC)cc3)oc(=O)c3cc(OC)c(OC)cc23)cc1F,–,"0.0259 µM [falling, full curve, poor fit]",-17.5%

Structure (SMILES),AC50 [1],AC50 [2],cell number change
CCN(CC)C(=O)c1ccc(Nc2nnc(-c3ccc(O)cc3)c3ccccc23)cc1,–,–,-18.5%
O=C1c2ccc(-c3ccc(F)cc3OCc3ccccc3)cc2S(=O)(=O)c2cccc(C(=O)N3CCCC3)c21,"4.11 µM [falling, full curve, poor fit]","29.1 µM [falling, single point]",-32.3%
CCC(CC)C(=O)N1CC(=O)Nc2ccc(F)cc2C1c1ccc(F)cc1 (centres undefined),–,–,-0.898%
Cc1ccc(S(=O)(=O)N2CCN(C(=O)COc3ccc(NC(=O)c4ccco4)cc3)CC2)cc1,"20.6 µM [rising, single point]",–,93.3%
O=C1c2ccccc2NC(c2cccs2)N1O (centres undefined),–,"20.6 µM [rising, single point]",7.47%
CC(C)NC(=O)CN1C(=O)CSc2ccc(S(=O)(=O)N3CCCC3)cc21,–,"0.517 µM [rising, full curve, poor fit]",-11.9%
C=CCNc1nc2c(c(=O)n(C)c(=O)n2C)n1Cc1ccc(F)cc1,"29.1 µM [falling, single point]","29.1 µM [falling, partial curve]",-115%
Cc1cc(Cl)c2oc(C(=O)NC3CCC(O)CC3)c(C)c2c1 (centres undefined),–,–,-15.5%
Cc1ccc(C(=O)Nc2ccc3c(c2)OCO3)o1,–,"6.51 µM [falling, single point]",–
Cc1cccc(-n2c(SCC(N)=O)nnc2-c2ccccn2)c1C,"4.11 µM [falling, full curve]","0.00461 µM [falling, full curve]",-63.9%
Cc1ccc(NC(=O)COC(=O)Cc2c(F)cccc2Cl)cc1S(=O)(=O)N1CCOCC1,"29.1 µM [rising, single point]",–,81.5%
CCOc1ccccc1NC(=O)/C(C#N)=C/c1c(C)nn(-c2ccccc2)c1Cl,–,"29.1 µM [falling, single point]",–
N/C(Cc1cccc2ccccc12)=N\O,–,"29.1 µM [rising, single point]",7.43%
Cn1c(=O)cc(SCC(=O)NCC2COc3ccccc3O2)c2ccccc21 (centres undefined),–,"1.64 µM [falling, full curve]",-23.5%
COc1ccccc1CNC(=O)C1CCCN(S(=O)(=O)c2cccc3nonc23)C1 (centres undefined),–,"6.51 µM [rising, single point]",–
O=C1CCc2cc(S(=O)(=O)NC(Cc3ccccc3)C(=O)NC3CCCC3)ccc2N1 (centres undefined),"2.59 µM [rising, single point]","6.51 µM [rising, single point]",7.21%
Cc1ccc(C2=NS(=O)(=O)N(C)C(C(=O)Nc3ccc4c(c3)OCO4)=C2)cc1,–,"20.6 µM [falling, partial curve]",1.44%
CC(C)n1nc(C(=O)Nc2nc3ccccc3[nH]2)c2ccccc2c1=O,–,–,15.5%
O=C(CN1C(=O)CSC1=O)Nc1ccccc1N1CCOCC1,–,–,1.43%
CCN(Cc1cc2ccccc2[nH]c1=O)S(=O)(=O)c1ccccc1,"3.66 µM [rising, single point]","5.8 µM [rising, single point]",–

Structure (SMILES),AC50 [1],AC50 [2],cell number change
O=C(O)c1ccccc1N1C(=O)C2C3CCC(C3)C2C1=O (centres undefined),–,–,-2.95%
CC(C)CCCC(C)NS(=O)(=O)Cc1ccccc1 (centres undefined),"32.6 µM [falling, single point]","3.66 µM [rising, single point]",-37.9%
COc1ccc(S(=O)(=O)N2CCN(C(=O)COc3ccc(C)c(C)c3)CC2)cc1OC,"3.26 µM [rising, partial curve]",–,18.5%
Clc1ccc(-c2nc3ccccn3c2CN2CCCCC2)cc1,"4.61 µM [rising, single point]",–,13.8%
COc1ccc(OC)c(NC(=O)C2CCCN(S(=O)(=O)c3cccc4nonc34)C2)c1 (centres undefined),"20.6 µM [rising, single point]","0.092 µM [rising, full curve]",73.5%
O=C1CCC(C(=O)N2CCCCO2)CN1CCc1ccccc1 (centres undefined),–,"3.26 µM [falling, partial curve]",–
CC(C)C(c1nnnn1CC1CCCO1)N1CCN(Cc2ccc3c(c2)OCO3)CC1 (centres undefined),–,"5.8 µM [falling, partial curve]",–
CN1CCN(CCCNC(=O)CCc2nnc3n(Cc4ccccc4Cl)c(=O)c4ccccc4n23)CC1,"29.1 µM [rising, single point]",–,45.8%
COC(=O)c1ccc(CNC(=O)c2ccc(COc3ccccc3)cc2)cc1,"0.82 µM [falling, full curve, poor fit]","4.61 µM [falling, single point]",-32.6%
O=C(CN1CCN(c2ccccc2)CC1)N/N=C/c1cccc(F)c1,–,"0.116 µM [falling, full curve, poor fit]",12.2%
CN1CCN(c2ccc(NC(=O)c3ccc([N+](=O)[O-])o3)cc2Cl)CC1,–,–,-3.36%
COc1ccc(CCNC(=O)CCSc2nc(-c3ccco3)cc(C(F)(F)F)n2)cc1OC,"16.4 µM [falling, single point]","18.4 µM [falling, single point]",-32.8%
Cc1ccc(NC(=O)CS(=O)CC(=O)NCC2CCCO2)cc1 (centres undefined),"29.1 µM [falling, single point]",–,-63.8%
N#Cc1ccccc1N=Cc1ccc(Br)cc1,"0.651 µM [falling, full curve, poor fit]","0.0651 µM [rising, full curve, poor fit]",–
Clc1ccc2nc(CSc3nnc4ccccn34)cn2c1,–,–,-15.9%
CN(C(=O)COc1ccccc1C(=O)NCCc1ccccc1)c1ccccc1,"0.291 µM [rising, full curve, poor fit]","16.4 µM [rising, single point]",–
CCN(CC)CCCNC(=O)N[C@@H](Cc1ccccc1)C(=O)O,–,"0.146 µM [falling, full curve, poor fit]",3.94%
COc1cccc(NC(=O)NC2(C(F)(F)F)Oc3ccccc3O2)c1,–,"32.6 µM [falling, single point]",-25.4%
CCCCSc1nc(O)c(C2OC(=O)c3c2ccc(OC)c3OC)c(=O)n1C (centres undefined),"3.66 µM [falling, full curve]","29.1 µM [falling, single point]",-50.8%

# Rewritten with bars between the fields: entries from further up
Structure (SMILES) | AC50 [1] | AC50 [2] | cell number change
O=C1c2ccccc2NC(c2cccs2)N1O (centres undefined) | – | 20.6 µM [rising, single point] | 7.47%
CC(C)NC(=O)CN1C(=O)CSc2ccc(S(=O)(=O)N3CCCC3)cc21 | – | 0.517 µM [rising, full curve, poor fit] | -11.9%
C=CCNc1nc2c(c(=O)n(C)c(=O)n2C)n1Cc1ccc(F)cc1 | 29.1 µM [falling, single point] | 29.1 µM [falling, partial curve] | -115%
Cc1cc(Cl)c2oc(C(=O)NC3CCC(O)CC3)c(C)c2c1 (centres undefined) | – | – | -15.5%
Cc1ccc(C(=O)Nc2ccc3c(c2)OCO3)o1 | – | 6.51 µM [falling, single point] | –
